Results are given in words; binding and its absence hold for the method and conditions named. Some results given as binding are weak or reduced against the parent protein; the word gives no strength.
Key:
[1] = target: T1, human FGFR4 protein (antigen of the ELISA, form not stated) (human) (UniProt P22455); experiment: ELISA
T1 sequence (looked up): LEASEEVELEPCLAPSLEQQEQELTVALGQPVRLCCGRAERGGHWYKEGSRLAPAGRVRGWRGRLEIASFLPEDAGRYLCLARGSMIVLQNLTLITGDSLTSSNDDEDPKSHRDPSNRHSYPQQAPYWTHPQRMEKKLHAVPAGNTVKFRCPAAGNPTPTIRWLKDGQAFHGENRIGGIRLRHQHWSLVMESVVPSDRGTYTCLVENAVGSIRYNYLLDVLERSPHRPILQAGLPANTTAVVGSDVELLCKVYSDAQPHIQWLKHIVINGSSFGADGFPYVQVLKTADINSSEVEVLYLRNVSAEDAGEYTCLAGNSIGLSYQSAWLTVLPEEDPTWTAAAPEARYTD

[2] = target: cell surface human FGFR4 (full-length human wild type FGFR4) (human) (UniProt P22455); experiment: flow cytometry (column 'Assay Positive')
[3] = target: T1, human FGFR4 protein (antigen of the ELISA, form not stated) (human); experiment: ELISA (column 'Assay Positive')
[4] = target: cell surface human FGFR4 (full-length human wild type FGFR4) (human) (UniProt P22455); experiment: flow cytometry
[5] = target: cell surface human FGFR4 (full-length human wild type FGFR4) (human) (UniProt P22455); experiment: flow cytometry of surface-bound mAb, saturating amount of mAb, RH30 cells
[6] = target: cell surface human FGFR4 (full-length human wild type FGFR4) (human) (UniProt P22455); experiment: flow cytometry titration on RMS cell lines, 0-10 ug/ml
[7] = target: cell surface human FGFR4 (full-length human wild type FGFR4) (human) (UniProt P22455); experiment: flow cytometry on RD (ERMS) and RH30 (ARMS) cells
[8] = target: cell surface human FGFR4 (full-length human wild type FGFR4) (human) (UniProt P22455); experiment: flow cytometry of surface-bound mAb, saturating amount of mAb, RD cells
[9] = target: cell surface human FGFR4 (full-length human wild type FGFR4) (human) (UniProt P22455); experiment: flow cytometry, RMS772-FGFR4 cells, 1 ug/mL mAb
[10] = target: cell surface human FGFR4 (full-length human wild type FGFR4) (human) (UniProt P22455); experiment: flow cytometry titration on RH30 and RD cells, 0-10 ug/ml
[11] = target: cell surface human FGFR4 (full-length human wild type FGFR4) (human) (UniProt P22455); experiment: IHC on tissue microarrays: Rh30, Rh41, Rh18 and Rh36 xenograft tissue and RMS tumors
[12] = target: cell surface human FGFR4 (full-length human wild type FGFR4) (human) (UniProt P22455); experiment: flow cytometry, 1 ug/mL mAb and fluorochrome-conjugated secondary antibody, RMS772-FGFR4 cells against RMS772-puro vector cells

Measured: binding

B1: 1G5 mouse anti-FGFR4 mAb (antibody, V domains shown)
VH: QVQLQQSGAELVRPGASVTLSCKASGYTFTDYEMHWVKKIPVYGLEWIGAIDPETYGTAYNQKFKGKATLTADKSSSTAYMEVRSLTSEDSAVYYCTRGGYYGSDFDYWGQGTTLTVSS
VL: DIQMNQSPSSLSASLGDTITITCHASQNINVWLSWYQQKPGNIPKLLIYKASNLHTGVPSRFSGSGSGTGFTLTISSLQPEDIATYYCQQGQSYPWTFGGGTKLEIK
binds: [1] | [2] | [3] | [4]

B2: 57.1 rabbit anti-FGFR4 mAb (antibody, V domains shown)
VH: QSVKESEGRLVTPGTPLTLTCTVSGFSLSTYAMSWVRQAPEKGLEWIGIIYATAETYYATWARGRFTISKTSTTVDLKITSPATEDTATYFCARLNGDGSGTYAYDIWGPGTLVTVSS
VL: ELVMTQTPSPVSAAVGGTVTINCQASQSISSSYLSWYQQKPGQPPKLLIYKASTRPSGVSSRFKGSGSGTQFTLTISGVQCADAATYYCLYGYYIDSGADNSFGGGTEVVVK
binds: [1] | [2] | [3] | [4]

B3: 29.2 rabbit anti-FGFR4 mAb (antibody, V domains shown)
VH: QSVKESEGRLVTPGTPLTLTCTVSGFSLSSNSVGWVRQAPGKGLEWIGIISSSGNRYYASWAKGRFTISKTSTTVDLKITSPTTEDTATYFCGGDPVSWYGDIWGPGTLVTVSS
VL: ELVLTQTPSSVSAAVGGTVTINCQSSPSLYKNNYLSWYQQKPGQPPKLLIYSASTLASGVPSRFKGSGSGTEYTLTISGVQCDDAATYYCLGGYSLSSDSPRAFGGGTEVVVK
binds: [5] | [6] | [1] | [7] | [2] | [3] | [8] | [4] | [9] | [10] | [11] | [12]

From patent US20180318440A1 (US Dept. of Health and Human Services, published 2018)
